# Assay results taken from PubChem BioAssay AID493014 (National Center for Advancing Translational Sciences (NCATS), 2011).
# The whole screen tested about 340,000 compounds, of which about 170 (0.05%) were called active. Inconclusive results, whose numbers are uncertain, are shown with a selection of clear calls. The call rests on the fitted dose curve; in most records, active means well fitted inhibition curve with a large enough effect in the signal ratio, with a control signal flat (not every such curve was filed as active); inconclusive means small, poorly fitted or top-dose-only effect, or effect the other way, or a change in a side signal; inactive means flat fitted curve, though single readings scatter; the % refers to the signal ratio. Potencies beside an inconclusive call are fits to weak or partial responses and may not hold up.
# Test: qHTS Assay to Find Inhibitors of Chronic Active B-Cell Receptor Signaling;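 on activity change, negative = inhibition: plate controls were basal doxycycline-induced cells for no effect and cells given 10 µM MG132 for full effect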
# Conditions: ABC-DLBCL IkBa-CBG/CBR reporter, luminescence ratio (green luciferase fused to IkBa over red control in TMD8 lymphoma cells), 4 h; activity change, negative = inhibition: at 46.1 µM (top of the series) unless noted
# In short: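 Cell line TMD8 (human ABC DLBCL), stably expressing tet-inducible CBG68-IkBa fusion and CBR; IMDM/0.5% FBS; cpd up to 46 uM; dox induction, 4 h, 37C/5% CO2; dual luminescence; green/red ratio; MG132 control.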
# Potency means the concentration at half of the fitted maximal effect.
Structure (SMILES),Potency,"activity change, negative = inhibition"
Cc1c(NC(=O)c2c(O)c3ccccc3n(C)c2=O)c(=O)n(-c2ccccc2)n1C,"inconclusive: 15.8 µM [falling, partial curve]",–
COc1ccccc1/C=C/C=N/n1c(C)nnc1C,"inconclusive: 35.5 µM [falling, single point]",–
CC[C@@H](C)[C@H](CN[C@H](CNC)C(C)C)NC[C@@H](C)c1ccc(CC(C)C)cc1,"inconclusive: 11.2 µM [falling, partial curve]",–
Cc1ccc(C(=O)NC2=NCCS2)cc1Cl,–,inconclusive: 3.57%
Cc1[nH]c2ccccc2c1/C=N/Nc1nc(Nc2ccc(F)cc2)nc(N2CCOCC2)n1,"inconclusive: 8.2 µM [falling, partial curve]",–
O=C(N/N=C/c1ccc2ncccc2c1)c1ccco1,"inconclusive: 3.55 µM [falling, partial curve]",–
Cc1cc(C(=O)OCC(=O)NCCc2ccccc2)c2ccccc2n1,–,inactive: 5.45%
O=C(O)c1ccn(COc2ccc(Br)cc2)n1,–,inconclusive: 17.7%
O=c1nccc(NCc2ccco2)[nH]1,–,inconclusive: -0.104%
Cc1occc1C(=O)NNC(=O)CN1C(=O)NC2(CCCCC2)C1=O,–,inconclusive: 14.6%
O=C(O)CCc1ccc(-c2ccccc2)n1NC(=O)c1cccs1,–,inactive: 5.49%
CCOc1ccc(Oc2ccc(S(=O)(=O)N3CCOCC3)cc2NC(=O)CCNC(C)=O)cc1,–,inconclusive: 3.96%
O=C(NC(=S)Nc1ccc([N+](=O)[O-])cc1O)C1CCCCC1,–,inconclusive: 1.73%
C=C(C)/C=N/NC(=S)Nc1ccc(S(=O)(=O)N2CCOCC2)cc1,–,inconclusive: 3.71%
Cc1nc2sc3c(O)cc(=O)[nH]c3c2c(C)c1C,–,inconclusive: 3.19%
COc1cccc(CC2(CO)CCN(Cc3cn(C)nc3C)CC2)c1,"inconclusive: 2.82 µM [falling, partial curve]",–
NC(=S)N/N=C/c1ccc(-c2ccccc2)o1,"inconclusive: 35.5 µM [falling, single point]",–
N#CCSc1nc2sccc2c(=O)n1-c1ccccc1,–,inconclusive: -14.1%
Cc1sc2ncnc(NS(=O)(=O)c3ccc(Cl)cc3)c2c1C,"inconclusive: 20.6 µM [falling, partial curve]",–
O=C(Nc1ccc(Cc2ccncc2)cc1)c1ccc(Br)o1,–,inconclusive: -8.5%
Cc1cc(Cl)ccc1OCC(=O)NNC(=O)c1cnccn1,–,inactive: 6.69%

Structure (SMILES),Potency,"activity change, negative = inhibition"
CCc1nc(SCCO)c2oc3ccccc3c2n1,–,inconclusive: -1.97%
CC(=O)c1c(C)oc2c1C(=O)c1ccccc1C2=O,–,inconclusive: -12%
COc1ccc(Cl)cc1NC(=O)CCS(=O)(=O)c1ccc(C)cc1,–,inactive: 8.89%
Cc1nc2cc(NC(=O)NCc3ccco3)ccc2n1C,"inconclusive: 18.4 µM [falling, single point]",–
O=C(CSc1nc2[nH]ncc2c(=O)[nH]1)N1CCCCC1,–,inconclusive: -2.34%
CC1=CC2=NC(=O)/C(=C\c3cccn3CCOc3cc(C)ccc3C)C(=N)N2O1,–,inconclusive: 4.65%
CCC(=O)Nc1ccc(N2CCN(C(=O)c3ccccc3C)CC2)cc1,"inconclusive: 23.1 µM [falling, single point]",–
CC(Sc1ccccc1)C(=O)N1CCN(S(=O)(=O)c2ccccc2C(F)(F)F)CC1 (configuration not stated),–,inconclusive: 4.28%
Cc1cc(C(=O)COC(=O)c2ccc3c(c2)NC(=O)CS3)c(C)n1CCc1ccc(Cl)cc1,–,inconclusive: 1.76%
Cc1ccccc1NC(=S)Nc1cccc2cnccc12,–,inactive: -15.9%
CCNC(=O)CC1C(=O)N(c2ccccc2)C(=O)N1CCOC (configuration not stated),–,inconclusive: 1.47%
O=C(Cc1ccsc1)N1CCN(S(=O)(=O)c2cc(C(F)(F)F)cc(C(F)(F)F)c2)CC1,–,inconclusive: 0.21%
Cc1cc(C(=O)COC(=O)CCc2nc3ccccc3s2)c(C)n1C,–,inconclusive: 6.94%
O=c1[nH]c2ccccc2c2nc3ccccn3c12,–,inconclusive: -0.656%
Cc1c(C(=O)N(Cc2cccc(Br)c2)C2CCS(=O)(=O)C2)oc2ccccc12 (configuration not stated),–,inconclusive: -3.72%
C/C=C\C(=O)Nc1cccc(C2=NOC3(C2)C[C@@H](C(N)=O)N(C(=O)c2ccccc2)C3)c1 (some centres not stated),–,inconclusive: 0.104%
O=C(O)[C@H](Cc1ccccc1)NC(=O)C(c1ccccc1)(c1ccccc1)c1ccccc1,–,inconclusive: -38.5%
COc1ccc2cc(C3(C)NC(=O)NC3=O)ccc2c1 (configuration not stated),–,inconclusive: -5.16%
Cc1cccc(Nc2nn3c(=O)c4ccccc4nc3s2)c1,–,inactive: 12%
O=C(/C=C/c1ccccc1)N(c1ccccn1)C1CCCCC1,–,inconclusive: 24.7%
CN(CC(=O)NCc1ccncc1)S(=O)(=O)c1cc(Cl)ccc1Cl,–,inconclusive: 16.7%

# Rewritten tab-delimited: five of the compounds above
Structure (SMILES)	Potency	activity change, negative = inhibition
Cc1nc2cc(NC(=O)NCc3ccco3)ccc2n1C	inconclusive: 18.4 µM [falling, single point]	–
CC1=CC2=NC(=O)/C(=C\c3cccn3CCOc3cc(C)ccc3C)C(=N)N2O1	–	inconclusive: 4.65%
Cc1cc(C(=O)COC(=O)c2ccc3c(c2)NC(=O)CS3)c(C)n1CCc1ccc(Cl)cc1	–	inconclusive: 1.76%
O=C(Cc1ccsc1)N1CCN(S(=O)(=O)c2cc(C(F)(F)F)cc(C(F)(F)F)c2)CC1	–	inconclusive: 0.21%
O=C(/C=C/c1ccccc1)N(c1ccccn1)C1CCCCC1	–	inconclusive: 24.7%

# (further entries)

Structure (SMILES),Potency,"activity change, negative = inhibition"
C[C@H]1CN=C(N(C)C)N1CCCC1CCCC1,–,inactive: -0.837%
Cc1cc(Cl)ccc1OCC(=O)NNC(=O)c1ccco1,–,inconclusive: 3.7%
CC1CN(c2cc3nccnc3cc2F)CC(C)O1 (configuration not stated),–,inconclusive: 5.24%
O=c1c2ccccc2nc(-c2ccccc2Cl)n1O,–,inactive: 3.69%
O=C(CN1CCN(c2ccc(F)cc2)CC1)Nc1ccccc1C(=O)NCCc1ccccc1,–,inconclusive: -0.249%
CCN(CC)c1ccc(Nc2nc(N3CCOCC3)c3ccccc3n2)cc1,–,inconclusive: 13.1%
O=C(CO/N=C/c1ccccc1OC(F)F)N1CCc2ccccc21,–,inactive: 1.34%
CCC(=O)N1CCN(c2ccccc2NC(=O)COc2cc(C)ccc2C(C)C)CC1,–,inconclusive: 3.43%
Cc1c(CCC(C)C)c(=O)n2c([nH]c3ccccc32)c1C#N,–,inconclusive: 17.1%
Clc1ccc2c(c1)[C@H]1OCC[C@H]1[C@@H](c1ccco1)N2,"inconclusive: 2.51 µM [activator, full curve, poor fit]",–
Cc1cccc(C(=O)Nc2ccc(C(=O)N/N=C/c3cccnc3)cc2)c1,–,inconclusive: -12%
COc1ccc(NC(=O)C(=O)c2cn(CC(=O)N3CCOCC3)c3ccccc23)cc1OC,"inconclusive: 11.2 µM [falling, partial curve]",–
O=C(NCc1ccco1)c1ccc2c(c1)C(=O)N(C1CCCCC1)C2=O,–,inconclusive: 0.365%
Cc1cc2c(cc1C)NC(c1nc3ccccc3[nH]1)C1=C(CC(C)(C)CC1=O)N2 (configuration not stated),"inconclusive: 35.5 µM [falling, single point]",–
Cc1cccc(Nc2cc(C)c3c(O)cccc3n2)c1C,–,inactive: -2.89%
Cc1cc2nc(-c3ccc[nH]c3=O)[nH]c2cc1C,"inconclusive: 35.5 µM [rising, single point]",–
CS(=O)(=O)c1ccccc1-c1nc(-c2cccc(Cl)c2)no1,–,inconclusive: 7.56%
O=C(Nc1ccc(-c2noc(CCc3ccccc3)n2)cc1)c1cccnc1,–,inconclusive: 3.2%
Cc1cccc(S(=O)(=O)Nc2nc3ccccc3nc2NCC2CCCO2)c1 (configuration not stated),–,inactive: 4.31%
CN(C(=O)COC(=O)c1cccc(S(=O)(=O)N2CCCCCC2)c1)C1CCS(=O)(=O)C1 (configuration not stated),–,inconclusive: 0.696%
COc1ccccc1CCNC(=O)C(=O)NCC(c1cccs1)S(=O)(=O)c1ccc(C)cc1 (configuration not stated),"inconclusive: 6.31 µM [falling, single point]",–

Structure (SMILES),Potency,"activity change, negative = inhibition"
COc1ccc(/C=C(/C#N)C(=O)Nc2cccnc2)cc1OC,–,inconclusive: -0.0323%
COc1ccc(/C=N/N2C(=N)SCC2=O)cc1,–,inconclusive: 4.54%
Cc1nc2ccccc2c2oc(C(=O)N3CC(C)CC(C)C3)cc12 (configuration not stated),–,inactive: 13.3%
COC(=O)[C@@]1(Cc2ccccc2)[C@@H]2C(=CC(=O)[C@H]2CC(=O)C(=O)N(C)C)CN1C(=O)c1ccccc1,"inconclusive: 20.6 µM [falling, partial curve, poor fit]",–
CC1=CC(C)(C)n2c(O)c(N=NC(N)=S)c3c(C)c(C)cc1c32,–,inconclusive: -11.2%
C/C(=N\N)c1c(-c2ccccc2)c2cc(Br)ccc2[nH]c1=O,"inconclusive: 10 µM [rising, partial curve, poor fit]",–
Cc1cc(C)c2c(=O)n(CC(=O)N3CCC(N4CCCCC4)CC3)sc2n1,–,inconclusive: -108%
O=C1Nc2ccccc2/C1=C/c1ccccc1F,"inconclusive: 20 µM [falling, single point]",–
COc1cccc(NC(=O)c2cccc(N3C(=O)C4CCC(C)CC4C3=O)c2)c1 (configuration not stated),"inconclusive: 28.2 µM [falling, single point]",–
O=C(CCCC(=O)Nc1cccnc1)Nc1cccnc1,–,inconclusive: 4.07%
Cc1ccc2c(CNCc3ccccc3)cc(=O)oc2c1,"inconclusive: 31.6 µM [falling, single point]",–
Cc1cc(C)cc(NC(=O)[C@H](NC(=O)[C@@H]2Cc3ccccc3CN2)c2ccccc2)c1,"inconclusive: 35.5 µM [falling, single point]",–
CCCCN(C)C(=O)C1CCC(CNS(=O)(=O)c2ccc3c(c2)CC(C)N3C(=O)C2CC2)CC1 (configuration not stated),–,inactive: 1.57%
COc1ccc(/C=C/C(=O)NC(C)C)cc1Br,–,inconclusive: -8.57%
Cc1cccc(-c2nc(C#N)c(N3CCCCC3)o2)c1,–,inconclusive: 6.07%
CCOC(=O)c1cnc2c(C)cccc2c1NCCc1ccc(OC)c(OC)c1,"inconclusive: 4.47 µM [falling, partial curve, poor fit]",inconclusive: 1.95%
Cc1cc(C)nc(NC2=NC3CCCCC3N2)n1 (configuration not stated),"inconclusive: 25.9 µM [rising, partial curve]",–
Cn1c(SCCSc2nnc(-c3ccccc3)n2C)nnc1-c1ccccc1,–,inactive: -0.736%
